Source: publication PMC11377572
Results are given in words; binding and its absence hold for the method and conditions named. Binding seen in cells or lysates may run through a third protein. Some binding calls cover weakened binding; strength is not graded here.

Chains of the proteins cited; added tags and fusions are not shown.
UniProt Q6A4J8: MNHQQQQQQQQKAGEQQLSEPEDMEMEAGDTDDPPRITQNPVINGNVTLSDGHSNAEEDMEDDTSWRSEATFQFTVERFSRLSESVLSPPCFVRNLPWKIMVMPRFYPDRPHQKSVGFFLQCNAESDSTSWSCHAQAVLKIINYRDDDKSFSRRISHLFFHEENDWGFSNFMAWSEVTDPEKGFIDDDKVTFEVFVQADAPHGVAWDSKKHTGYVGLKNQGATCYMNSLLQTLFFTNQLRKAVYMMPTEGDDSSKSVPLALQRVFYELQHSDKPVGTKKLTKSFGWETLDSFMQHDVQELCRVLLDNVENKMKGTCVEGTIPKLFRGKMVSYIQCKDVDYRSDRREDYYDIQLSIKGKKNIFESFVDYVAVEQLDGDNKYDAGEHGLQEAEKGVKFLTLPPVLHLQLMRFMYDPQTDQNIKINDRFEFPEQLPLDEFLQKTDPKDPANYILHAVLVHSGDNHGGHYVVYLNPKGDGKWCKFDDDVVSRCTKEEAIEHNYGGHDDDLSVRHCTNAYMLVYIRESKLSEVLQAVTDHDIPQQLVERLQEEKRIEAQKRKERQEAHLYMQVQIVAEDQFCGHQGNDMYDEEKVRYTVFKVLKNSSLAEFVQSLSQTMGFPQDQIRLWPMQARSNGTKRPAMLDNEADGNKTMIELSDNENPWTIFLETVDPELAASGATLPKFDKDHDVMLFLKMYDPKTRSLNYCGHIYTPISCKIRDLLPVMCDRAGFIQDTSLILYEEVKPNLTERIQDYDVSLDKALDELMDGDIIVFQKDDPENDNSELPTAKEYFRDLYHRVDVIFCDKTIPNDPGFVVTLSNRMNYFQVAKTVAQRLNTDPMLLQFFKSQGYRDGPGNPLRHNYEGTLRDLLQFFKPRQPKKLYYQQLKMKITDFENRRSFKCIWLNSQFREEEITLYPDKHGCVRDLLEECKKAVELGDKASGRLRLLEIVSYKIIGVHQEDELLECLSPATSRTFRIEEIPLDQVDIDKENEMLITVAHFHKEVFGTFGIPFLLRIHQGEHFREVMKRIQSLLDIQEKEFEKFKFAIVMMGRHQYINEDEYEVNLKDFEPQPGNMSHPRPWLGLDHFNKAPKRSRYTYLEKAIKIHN
UniProt Q8CFE3: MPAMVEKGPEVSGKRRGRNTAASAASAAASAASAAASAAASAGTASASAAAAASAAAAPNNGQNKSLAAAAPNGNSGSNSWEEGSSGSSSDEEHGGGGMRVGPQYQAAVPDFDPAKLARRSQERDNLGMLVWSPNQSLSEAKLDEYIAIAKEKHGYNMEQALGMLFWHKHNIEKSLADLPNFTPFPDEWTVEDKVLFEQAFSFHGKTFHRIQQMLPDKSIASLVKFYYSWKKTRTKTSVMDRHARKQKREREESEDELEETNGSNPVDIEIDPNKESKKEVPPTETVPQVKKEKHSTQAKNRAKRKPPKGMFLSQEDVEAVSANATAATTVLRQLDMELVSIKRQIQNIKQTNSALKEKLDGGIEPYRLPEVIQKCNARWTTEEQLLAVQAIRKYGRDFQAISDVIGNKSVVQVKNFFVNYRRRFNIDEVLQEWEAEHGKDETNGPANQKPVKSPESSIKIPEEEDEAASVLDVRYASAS
UniProt Q8C796: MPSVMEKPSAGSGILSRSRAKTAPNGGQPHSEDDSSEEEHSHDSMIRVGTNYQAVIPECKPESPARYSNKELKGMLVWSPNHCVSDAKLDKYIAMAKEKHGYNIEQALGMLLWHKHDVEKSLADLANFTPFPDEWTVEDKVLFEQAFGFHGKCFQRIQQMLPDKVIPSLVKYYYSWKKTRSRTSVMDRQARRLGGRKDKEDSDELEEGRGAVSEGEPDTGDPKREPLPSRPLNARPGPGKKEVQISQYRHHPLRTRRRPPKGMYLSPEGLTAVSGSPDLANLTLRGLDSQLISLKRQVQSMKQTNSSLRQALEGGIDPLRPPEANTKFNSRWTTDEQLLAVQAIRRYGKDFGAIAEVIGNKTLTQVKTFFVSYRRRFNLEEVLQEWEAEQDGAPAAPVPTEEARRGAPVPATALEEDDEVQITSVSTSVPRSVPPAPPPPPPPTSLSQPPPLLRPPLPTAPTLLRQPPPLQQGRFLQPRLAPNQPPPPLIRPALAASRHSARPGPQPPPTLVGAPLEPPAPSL

Assays:
[1] = target: ubiquitin-specific peptidase 7 (USP7), endogenous in mouse ESCs (mouse (endogenous in CCE mouse ESCs)) (UniProt Q6A4J8); assay: co-IP; USP7 immunoprecipitation from whole cell extract of Lsd1 KO mouse ESCs (DNMT1 and UHRF1 protein levels are low in these cells), immunoblots
[2] = target: RCOR1, endogenous in mouse ESCs (mouse (endogenous in CCE mouse ESCs)) (UniProt Q8CFE3); assay: co-IP; immunoprecipitation with RCOR1 (Novus NBP3-16225, 5 ug) or RCOR2 (Proteintech 23969-1-AP, 5 ug) antibodies from mouse ESC extract, immunoblots (Supplementary Fig. 9E, F)
[3] = target: RCOR2, endogenous in mouse ESCs (mouse (endogenous in CCE mouse ESCs)) (UniProt Q8C796); assay: as above
[4] = target: ubiquitin-specific peptidase 7 (USP7), endogenous in mouse ESCs (mouse (endogenous in CCE mouse ESCs)) (UniProt Q6A4J8); assay: co-IP; USP7 immunoprecipitation (anti-USP7, Invitrogen PA5-34911, 4 ug; protein A magnetic beads) from whole cell extract of WT, LSD1^WT and LSD1^MUT mouse ESCs, immunoblots; also with DNase or RNase treatment and after TSA or SAHA treatment of the cells
[5] = target: HDAC1, endogenous in mouse ESCs (mouse (endogenous in CCE mouse ESCs)), O09106; assay: co-IP; HDAC1 immunoprecipitation (anti-HDAC1, Abcam ab19845, 4 ug) from whole cell extract of WT mouse ESCs, immunoblots of DNMT1, UHRF1 and LSD1; conditions: remark: other sources report otherwise

| Binder | binding [1] | binding [2] | binding [3] | binding [4] | binding [5] |
| --- | --- | --- | --- | --- | --- |
| Ubiquitin-like, with PHD and RING finger domains 1 (UHRF1), endogenous in mouse ESCs (protein, UniProt Q8VDF2 1-782) MWIQVRTMDGKETHTVNSLSRLTKVQELRKKIEEVFHVEPQLQRLFYRGKQMEDGHTLFDYDVRLNDTIQLLVRQSLALPLSTKERDSELSDSDSGYGVGHSESDKSSTHGEGAAEADDKTVWEDTDLGLYKVNEYVDVRDNIFGAWFEAQVVQVQKRALSEDEPCSSSAVKTSEDDIMYHVKYDDYPEHGVDIVKAKNVRARARTVIPWENLEVGQVVMANYNVDYPRKRGFWYDVEICRKRQTRTARELYGNIRLLNDSQLNNCRIMFVDEVLMIELPKERRPLIASPSQPPPALRNTGKSGPSCRFCKDDENKPCRKCACHVCGGREAPEKQLLCDECDMAFHLYCLKPPLTSVPPEPEWYCPSCRTDSSEVVQAGEKLKESKKKAKMASATSSSRRDWGKGMACVGRTTECTIVPANHFGPIPGVPVGTMWRFRVQVSESGVHRPHVAGIHGRSNDGAYSLVLAGGYEDDVDNGNYFTYTGSGGRDLSGNKRTAGQSSDQKLTNNNRALALNCHSPINEKGAEAEDWRQGKPVRVVRNMKGGKHSKYAPAEGNRYDGIYKVVKYWPERGKSGFLVWRYLLRRDDTEPEPWTREGKDRTRQLGLTMQYPEGYLEALANKEKSRKRPAKALEQGPSSSKTGKSKQKSTGPTLSSPRASKKSKLEPYTLSEQQANLIKEDKGNAKLWDDVLTSLQDGPYQIFLSKVKEAFQCICCQELVFRPVTTVCQHNVCKDCLDRSFRAQVFSCPACRFELDHSSPTRVNQPLQTILNQLFPGYGSGR | binds weakly | no binding | no binding | binds | – |
| Ubiquitin-like, with PHD and RING finger domains 1 (UHRF1), endogenous in mouse ESCs, Q8VDF2 1-782 (protein) MWIQVRTMDGKETHTVNSLSRLTKVQELRKKIEEVFHVEPQLQRLFYRGKQMEDGHTLFDYDVRLNDTIQLLVRQSLALPLSTKERDSELSDSDSGYGVGHSESDKSSTHGEGAAEADDKTVWEDTDLGLYKVNEYVDVRDNIFGAWFEAQVVQVQKRALSEDEPCSSSAVKTSEDDIMYHVKYDDYPEHGVDIVKAKNVRARARTVIPWENLEVGQVVMANYNVDYPRKRGFWYDVEICRKRQTRTARELYGNIRLLNDSQLNNCRIMFVDEVLMIELPKERRPLIASPSQPPPALRNTGKSGPSCRFCKDDENKPCRKCACHVCGGREAPEKQLLCDECDMAFHLYCLKPPLTSVPPEPEWYCPSCRTDSSEVVQAGEKLKESKKKAKMASATSSSRRDWGKGMACVGRTTECTIVPANHFGPIPGVPVGTMWRFRVQVSESGVHRPHVAGIHGRSNDGAYSLVLAGGYEDDVDNGNYFTYTGSGGRDLSGNKRTAGQSSDQKLTNNNRALALNCHSPINEKGAEAEDWRQGKPVRVVRNMKGGKHSKYAPAEGNRYDGIYKVVKYWPERGKSGFLVWRYLLRRDDTEPEPWTREGKDRTRQLGLTMQYPEGYLEALANKEKSRKRPAKALEQGPSSSKTGKSKQKSTGPTLSSPRASKKSKLEPYTLSEQQANLIKEDKGNAKLWDDVLTSLQDGPYQIFLSKVKEAFQCICCQELVFRPVTTVCQHNVCKDCLDRSFRAQVFSCPACRFELDHSSPTRVNQPLQTILNQLFPGYGSGR | – | – | – | – | no binding |
